The values below come from publication PMC7862700.

Sequences of proteins named here, by UniProt entry; tags and fusion partners are left off. A change or cut given only in a name is not applied to a line headed by its entry.
UniProt Q01892: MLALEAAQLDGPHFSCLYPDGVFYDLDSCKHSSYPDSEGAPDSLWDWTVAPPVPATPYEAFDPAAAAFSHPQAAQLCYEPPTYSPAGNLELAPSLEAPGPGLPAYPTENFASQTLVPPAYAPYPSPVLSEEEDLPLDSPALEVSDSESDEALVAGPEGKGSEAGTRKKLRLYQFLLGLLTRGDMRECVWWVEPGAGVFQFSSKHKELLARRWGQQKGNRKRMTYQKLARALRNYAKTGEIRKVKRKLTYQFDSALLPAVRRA
UniProt P41161: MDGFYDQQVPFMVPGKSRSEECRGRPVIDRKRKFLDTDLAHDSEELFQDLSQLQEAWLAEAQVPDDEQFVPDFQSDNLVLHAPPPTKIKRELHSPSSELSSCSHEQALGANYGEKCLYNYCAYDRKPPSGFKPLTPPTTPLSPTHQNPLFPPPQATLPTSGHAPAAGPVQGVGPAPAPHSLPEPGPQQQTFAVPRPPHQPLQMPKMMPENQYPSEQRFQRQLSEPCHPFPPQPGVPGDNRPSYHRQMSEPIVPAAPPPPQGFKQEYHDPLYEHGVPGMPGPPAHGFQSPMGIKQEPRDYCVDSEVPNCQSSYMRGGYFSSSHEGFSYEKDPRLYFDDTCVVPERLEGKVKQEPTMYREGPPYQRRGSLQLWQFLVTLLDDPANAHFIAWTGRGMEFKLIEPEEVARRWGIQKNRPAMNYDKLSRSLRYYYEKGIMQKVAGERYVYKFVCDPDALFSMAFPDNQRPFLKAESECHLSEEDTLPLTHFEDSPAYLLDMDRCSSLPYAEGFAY
UniProt Q99607: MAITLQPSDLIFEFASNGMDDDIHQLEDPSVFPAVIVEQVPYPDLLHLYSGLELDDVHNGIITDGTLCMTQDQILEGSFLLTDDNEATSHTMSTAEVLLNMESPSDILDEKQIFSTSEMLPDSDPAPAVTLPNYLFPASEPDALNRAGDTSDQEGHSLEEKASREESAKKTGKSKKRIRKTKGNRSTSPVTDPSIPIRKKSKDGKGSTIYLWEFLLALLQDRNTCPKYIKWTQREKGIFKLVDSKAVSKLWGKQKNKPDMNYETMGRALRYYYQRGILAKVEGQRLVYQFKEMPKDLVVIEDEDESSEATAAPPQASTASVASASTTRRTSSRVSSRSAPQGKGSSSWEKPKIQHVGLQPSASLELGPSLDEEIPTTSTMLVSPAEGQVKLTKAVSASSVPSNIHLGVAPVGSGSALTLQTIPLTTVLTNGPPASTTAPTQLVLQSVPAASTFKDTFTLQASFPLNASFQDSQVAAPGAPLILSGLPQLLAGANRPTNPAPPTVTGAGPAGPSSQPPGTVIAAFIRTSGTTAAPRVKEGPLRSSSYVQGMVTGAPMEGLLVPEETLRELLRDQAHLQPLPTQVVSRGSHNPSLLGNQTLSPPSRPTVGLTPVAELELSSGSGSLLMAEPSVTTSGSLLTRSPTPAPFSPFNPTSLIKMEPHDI

The entries are a selection whose mix differs from that of the whole data set. At the low end of the ranking, values are background and their order means little.

Holding throughout (test): DAPPL (digital affinity profiling via proximity ligation, sequencing)
Common to all, as to conditions: 10 mM Tris-HCl pH 7.5, 50 mM NaCl, 1 mM DTT, 4% glycerol, room temperature, 30 min; GST-TFs on glutathione beads, 16-mer random dsDNA library, 0.1% …; high values mean tight binding; double strand, one strand shown; scale: fold enrichment (6-mer frequency, TF over GST control)

For assay [1], the target named is T1, FLI1 (UniProt Q01543).
T1 sequence: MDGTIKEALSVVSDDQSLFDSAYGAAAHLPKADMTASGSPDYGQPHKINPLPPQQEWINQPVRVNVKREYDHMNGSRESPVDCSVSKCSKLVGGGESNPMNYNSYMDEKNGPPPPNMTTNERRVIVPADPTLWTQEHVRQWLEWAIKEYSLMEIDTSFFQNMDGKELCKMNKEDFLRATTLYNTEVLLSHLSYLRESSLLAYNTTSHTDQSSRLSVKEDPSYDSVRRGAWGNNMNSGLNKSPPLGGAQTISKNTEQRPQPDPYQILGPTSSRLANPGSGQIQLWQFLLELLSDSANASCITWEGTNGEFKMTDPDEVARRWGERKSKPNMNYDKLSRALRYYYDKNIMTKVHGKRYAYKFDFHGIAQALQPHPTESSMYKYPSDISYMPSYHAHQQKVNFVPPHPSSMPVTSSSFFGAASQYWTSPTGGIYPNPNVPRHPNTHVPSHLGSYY

Assay [2] concerns the target T2, EHF (UniProt Q9NZC4).
T2 sequence: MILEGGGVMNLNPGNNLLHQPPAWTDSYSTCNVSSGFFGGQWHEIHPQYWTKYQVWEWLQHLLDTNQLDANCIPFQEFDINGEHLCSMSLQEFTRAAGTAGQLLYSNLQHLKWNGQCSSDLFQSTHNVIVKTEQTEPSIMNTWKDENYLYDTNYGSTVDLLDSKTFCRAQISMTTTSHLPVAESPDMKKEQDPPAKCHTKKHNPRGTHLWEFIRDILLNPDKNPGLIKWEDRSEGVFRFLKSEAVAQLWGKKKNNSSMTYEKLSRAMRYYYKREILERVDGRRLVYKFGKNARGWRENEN

Assay [3] concerns the target SPIB (UniProt Q01892).
Assay [4] deals with ETV5 (UniProt P41161).
Assay [5] deals with ELF4 (UniProt Q99607).
The target in assay [6] is T3, ETV2 (UniProt O00321).
T3 sequence: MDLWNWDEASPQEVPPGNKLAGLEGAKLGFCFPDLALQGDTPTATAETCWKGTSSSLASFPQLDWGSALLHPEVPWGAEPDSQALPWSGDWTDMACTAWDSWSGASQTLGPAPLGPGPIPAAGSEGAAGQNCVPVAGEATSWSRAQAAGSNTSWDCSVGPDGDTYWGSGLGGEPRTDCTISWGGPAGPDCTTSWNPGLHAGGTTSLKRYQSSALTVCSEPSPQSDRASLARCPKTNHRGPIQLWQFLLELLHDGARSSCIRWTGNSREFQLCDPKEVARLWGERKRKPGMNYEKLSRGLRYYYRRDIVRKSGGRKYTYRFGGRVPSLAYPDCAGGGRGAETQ

Assay [7] deals with T4, ETV3L (UniProt Q6ZN32).
T4 sequence: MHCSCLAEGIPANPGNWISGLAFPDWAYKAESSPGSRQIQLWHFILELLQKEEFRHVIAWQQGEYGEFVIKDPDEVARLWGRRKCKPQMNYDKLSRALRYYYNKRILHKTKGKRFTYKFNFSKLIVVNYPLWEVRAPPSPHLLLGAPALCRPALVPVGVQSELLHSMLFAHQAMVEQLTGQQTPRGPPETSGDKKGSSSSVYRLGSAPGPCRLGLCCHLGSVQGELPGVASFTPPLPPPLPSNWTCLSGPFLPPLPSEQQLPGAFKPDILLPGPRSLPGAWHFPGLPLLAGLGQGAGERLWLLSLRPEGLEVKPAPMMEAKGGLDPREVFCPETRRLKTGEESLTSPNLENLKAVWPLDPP

In the case of GGGAAT, the binding signal came to 0.829 in assay [1]; 0.798 in assay [2]; 0.842 in assay [3]; 0.752 in assay [4]; 0.802 in assay [5]; 0.719 in assay [6]. This sequence also gave a binding signal in assay [7] of 0.76.
For CGGTGT, the binding signal in assay [1] was 0.713; in assay [2], 0.721; in assay [3] it was 0.725; in assay [4], 0.724; in assay [5] it was 0.722; in assay [6], 0.855. The sequence further had a binding signal in assay [7] of 0.74.
In the case of GACACG, the binding signal in assay [1] was found to be 0.624; in assay [2], 0.694; in assay [3] it was 0.711; in assay [4] it was 0.704; in assay [5], 0.747; in assay [6], 0.682. In assay [7], this sequence registered a binding signal of 0.661.
In the case of AGAGTC, the binding signal is 0.433 in assay [1]; 0.414 in assay [2]; 0.394 in assay [3]; 0.437 in assay [4]; 0.453 in assay [5]; 0.445 in assay [6]. For the same sequence, the binding signal in assay [7] was 0.475.
Turning to AGTAGA, the binding signal in assay [1] turned out to be 0.795; in assay [2] it was 0.805; in assay [3], 0.776; in assay [4] it was 0.77; in assay [5], 0.787; in assay [6] it was 0.772. Moreover, the binding signal in assay [7] is 0.826.
GATAGA: the binding signal in assay [1] stood at 0.807; in assay [2], 0.791; in assay [3], 0.8; in assay [4], 0.806; in assay [5], 0.796; in assay [6], 0.758. The binding signal in assay [7] was 0.779.
Take GTGTGC: the binding signal was 0.798 in assay [1]; 0.78 in assay [2]; 0.941 in assay [3]; 0.878 in assay [4]; 0.925 in assay [5]; 0.998 in assay [6]. In assay [7], this sequence showed a binding signal of 0.848.
As for GTCCAG, the binding signal turned out to be 0.664 in assay [1]; 0.651 in assay [2]; 0.659 in assay [3]; 0.631 in assay [4]; 0.63 in assay [5]; 0.649 in assay [6]. For the same sequence, in assay [7], the binding signal is 0.676.
Take GTGGAC: the binding signal in assay [1] turned out to be 0.837; in assay [2], 0.932; in assay [3], 0.859; in assay [4] it was 0.888; in assay [5] it was 0.9; in assay [6], 0.824. The binding signal in assay [7] turned out to be 0.914.
For the sequence GAGAAG, the binding signal in assay [1] was 0.711; in assay [2] it was 0.717; in assay [3], 0.755; in assay [4], 0.733; in assay [5] it was 0.725; in assay [6], 0.711. Further, the binding signal in assay [7] turned out to be 0.679.
Consider GTGAGT, for which the binding signal in assay [1] amounted to 0.136; in assay [2], 0.139; in assay [3], 0.123; in assay [4] it was 0.141; in assay [5] it was 0.122; in assay [6], 0.12. Further, the binding signal in assay [7] is 0.135.
In the case of CCGAGA, the binding signal came out at 0.583 in assay [1]; 0.659 in assay [2]; 0.631 in assay [3]; 0.619 in assay [4]; 0.604 in assay [5]; 0.582 in assay [6]. Also, the binding signal in assay [7] amounted to 0.571.
Consider GTGACA, for which the binding signal in assay [1] was determined as 0.765; in assay [2], 0.77; in assay [3] it was 0.731; in assay [4], 0.781; in assay [5], 0.788; in assay [6], 0.651. This sequence yielded a binding signal in assay [7] of 0.869.
Consider CACAGA, for which the binding signal in assay [1] was 0.904; in assay [2], 0.873; in assay [3], 0.848; in assay [4] it was 0.849; in assay [5] it was 0.944; in assay [6], 0.943. Also, in assay [7], the binding signal came to 0.838.
For the sequence TCGGTT, the binding signal in assay [1] amounted to 0.878; in assay [2] it was 0.865; in assay [3], 0.828; in assay [4], 0.763; in assay [5], 0.778; in assay [6], 0.777. The same sequence had a binding signal in assay [7] of 0.713.
ACGGGG: the binding signal in assay [1] was determined as 0.686; in assay [2] it was 0.715; in assay [3], 0.693; in assay [4], 0.666; in assay [5], 0.629; in assay [6], 0.741. Moreover, in assay [7], the binding signal was determined as 0.604.
On to TACGTG, for which the binding signal in assay [1] came to 0.702; in assay [2] it was 0.732; in assay [3] it was 0.666; in assay [4], 0.729; in assay [5], 0.697; in assay [6], 0.735. Further, the binding signal in assay [7] amounted to 0.741.
For GAGCAT, the binding signal in assay [1] came out at 0.74; in assay [2] it was 0.758; in assay [3], 0.676; in assay [4], 0.774; in assay [5], 0.755; in assay [6], 0.845. This sequence yielded a binding signal in assay [7] of 0.761.
